Drawing on article doi:10.1101/587212, this text covers binding for two substances.

Chains of the proteins cited; added tags and fusions are not shown.
UniProt P29466: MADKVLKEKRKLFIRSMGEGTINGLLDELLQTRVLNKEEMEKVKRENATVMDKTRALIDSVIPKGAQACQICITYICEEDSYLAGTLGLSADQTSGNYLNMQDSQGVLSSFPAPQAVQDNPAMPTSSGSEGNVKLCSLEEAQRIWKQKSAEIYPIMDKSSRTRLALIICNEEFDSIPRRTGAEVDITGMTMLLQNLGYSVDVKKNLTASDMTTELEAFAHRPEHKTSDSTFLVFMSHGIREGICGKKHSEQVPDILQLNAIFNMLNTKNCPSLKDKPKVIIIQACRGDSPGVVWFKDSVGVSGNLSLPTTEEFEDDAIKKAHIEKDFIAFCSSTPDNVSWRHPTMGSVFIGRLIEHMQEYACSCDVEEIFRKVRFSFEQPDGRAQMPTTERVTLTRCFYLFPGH

Results are given in words; binding and its absence hold for the method and conditions named. Binding seen in cells or lysates may run through a third protein. Some entries that bind do so weakly or less than the wild type. For some assays here: Tags and fused reporters may be left off the sequences shown.

Assay [1] deals with T1, mOrange-NOD1 (UniProt Q9Y239).
T1 sequence: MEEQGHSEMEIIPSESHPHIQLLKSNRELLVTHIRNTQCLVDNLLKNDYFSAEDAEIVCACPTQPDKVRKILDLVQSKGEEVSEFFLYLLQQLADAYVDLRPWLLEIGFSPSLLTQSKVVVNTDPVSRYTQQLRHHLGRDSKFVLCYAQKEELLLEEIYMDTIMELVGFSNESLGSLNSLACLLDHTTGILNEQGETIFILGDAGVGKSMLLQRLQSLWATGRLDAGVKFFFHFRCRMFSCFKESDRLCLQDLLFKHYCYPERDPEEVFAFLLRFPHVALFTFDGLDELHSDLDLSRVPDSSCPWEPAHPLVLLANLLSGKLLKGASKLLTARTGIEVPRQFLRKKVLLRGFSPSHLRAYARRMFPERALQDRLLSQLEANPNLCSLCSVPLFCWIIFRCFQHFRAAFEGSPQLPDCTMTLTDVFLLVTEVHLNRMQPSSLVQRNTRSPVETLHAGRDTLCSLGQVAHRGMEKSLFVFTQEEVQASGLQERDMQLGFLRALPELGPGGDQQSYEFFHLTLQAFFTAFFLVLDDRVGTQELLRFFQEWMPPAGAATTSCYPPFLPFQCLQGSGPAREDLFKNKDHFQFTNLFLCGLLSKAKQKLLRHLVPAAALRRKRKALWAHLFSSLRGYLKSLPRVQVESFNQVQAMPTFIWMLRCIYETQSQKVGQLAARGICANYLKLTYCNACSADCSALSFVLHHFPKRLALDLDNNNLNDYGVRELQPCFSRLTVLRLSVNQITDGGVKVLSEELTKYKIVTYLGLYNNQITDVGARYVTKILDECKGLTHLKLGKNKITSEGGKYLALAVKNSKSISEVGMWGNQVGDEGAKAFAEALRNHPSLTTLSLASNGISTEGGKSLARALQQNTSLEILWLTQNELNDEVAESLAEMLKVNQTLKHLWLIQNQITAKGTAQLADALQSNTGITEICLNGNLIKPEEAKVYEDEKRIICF
Description: FRET or BRET. In general terms: In BRET a luciferase serves as donor, and the signal depends on an acceptor being close.

Assay [2] has as its target T2, FLAG-tagged full-length NOD1 (NOD1-FLAG) (UniProt Q9Y239).
T2 sequence: T1 sequence
Put plainly: co-IP.

Consider “EGFP-caspase-1 (from UniProt P29466 1-404) (enzyme)”, for which the binding entry in assay [1] is listed as “binds”.

With “endogenous caspase-1 (from UniProt P29466 1-404) (enzyme)”, in assay [2], the binding entry was “binds”.
